Data taken from patent EP0302824A2 (priority 1987, dated 1989).
Like-named read-outs stand apart in the source and are kept apart here. The name of at least one read-out is uncertain.

Conditions: isazophos

With CCOP(=S)(OCC)Oc1nc(Cl)n(C(C)C)n1 [isazofos] as the molecule, how does the “enhancement over the aqueous solubility” value (A4, 1000 ppm) read?
The value was “twofold”.

What about the “enhancement over the aqueous solubility” value (N9, 1000 ppm) of the same molecule?
Its value is “onefold”.

What about the “enhancement over the aqueous solubility” value (non-ionic N3 (Triton N101), 1000 ppm) of the same molecule?
Its value is “threefold”.
